Record: PubChem BioAssay AID1053208 (Peter MacCallum Cancer Centre, 2014)
Purpose: 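Synthetic lethal interactions between gene loss and doxorubicin in osteosarcoma cells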 (primary screen). System: mouse osteosarcoma cells, early-passage culture from an engineered mouse model of fibroblastic bone tumour. Reagents: siRNA pool against mouse genes, 40 nM. Timing: about 120 h (48 h before drug, then 72 h with drug). Treatment: doxorubicin 100 nM for 72 h, roughly 30-40% inhibitory dose. Detection: 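Luminescent ATP signal taken as viability with or without 100 nM doxorubicin for 72 h; mean of two wells set against non-targeting siRNA and turned into robust z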. Direction: viability z-score with doxorubicin: higher = more viable cells under doxorubicin; viability z-score without drug: higher = more viable cells with knock-down alone. Active means: 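a pool counts as active when its viability z-score with doxorubicin is -2 or below and its z-score without drug lies between -2 and 2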.
Here is an unselected part of about 17,000 reagents tested. In the full data, 788 (4.7%) were called active. 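Calls rest on z-score classes alone; an extra cut-off of viability at most 70% of control was not applied to them.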 The numbers tell different reagents against one gene apart. Some reagents were tested in more than one well and are listed for each. Not all columns of the deposit are shown.

gene	reagent no.	combined z-score class	viability z-score with doxorubicin	viability z-score without drug	Outcome
Or3a1c (olfactory receptor family 3 subfamily A member 1C)	1	no change with or without drug	0.79	0.84	inactive
Adra1b (adrenergic receptor, alpha 1b)	1	no change with or without drug	-1.12	0.17	inactive
Adra1b (adrenergic receptor, alpha 1b)	2	no change with or without drug	0.11	-0.17	inactive
Sult3a1 (sulfotransferase family 3A, member 1)	1	low cell count without drug only	0	-2.19	inactive
BC023105 (cDNA sequence BC023105)	1	no change with or without drug	0.22	1.01	inactive
Phyh (phytanoyl-CoA hydroxylase)	1	no change with or without drug	-0.79	0	inactive
Nhlrc1 (NHL repeat containing 1)	1	high cell count with and without drug	2.59	2.87	inactive
Mill2 (MHC I like leukocyte 2)	1	no change with or without drug	0.67	-1.35	inactive
Ech1 (enoyl coenzyme A hydratase 1, peroxisomal)	1	low cell count without drug only	-1.57	-2.53	inactive
Sult2a2	1	no change with or without drug	0.67	0.84	inactive
Itga10 (integrin, alpha 10)	1	no change with or without drug	0	-0.84	inactive
Plcd3 (phospholipase C, delta 3)	1	no change with or without drug	0.56	1.35	inactive
Rabepk (Rab9 effector protein with kelch motifs)	1	no change with or without drug	0	-0.51	inactive
Zfand5 (zinc finger, AN1-type domain 5)	1	low cell count with doxorubicin only	-2.47	-1.01	active
Pbp2 (phosphatidylethanolamine binding protein 2)	1	no change with or without drug	-0.67	0.17	inactive
Bcl7a (B cell CLL/lymphoma 7A)	1	no change with or without drug	1.12	1.01	inactive
Tnfaip3 (tumor necrosis factor, alpha-induced protein 3)	1	no change with or without drug	0.9	0.51	inactive
Cdc42ep4 (CDC42 effector protein 4)	1	no change with or without drug	-0.79	0.84	inactive
Orm2 (orosomucoid 2)	1	no change with or without drug	-0.67	-0.51	inactive
Efna1 (ephrin A1)	1	no change with or without drug	-0.9	-0.84	inactive
Slc61a1	1	no change with or without drug	0.56	1.85	inactive
Tnfaip1 (tumor necrosis factor, alpha-induced protein 1 (endothelial))	1	no change with or without drug	-0.22	-0.34	inactive
Adamtsl3 (ADAMTS-like 3)	1	no change with or without drug	0	1.18	inactive
Slc1a3	1	no change with or without drug	-0.45	-1.18	inactive
Eif4g3 (eukaryotic translation initiation factor 4 gamma, 3)	1	high cell count without drug only	-0.45	2.02	inactive
Rrp8 (ribosomal RNA processing 8)	1	no change with or without drug	0.67	0.67	inactive
B4gat1 (beta-1,4-glucuronyltransferase 1)	1	no change with or without drug	1.57	-1.01	inactive
Alkbh5 (alkB homolog 5, RNA demethylase)	1	no change with or without drug	-1.24	-0.51	inactive
Gbp9 (guanylate-binding protein 9)	1	no change with or without drug	-1.35	-0.51	inactive

Active calls, of those listed so far:
gene	reagent no.	combined z-score class	viability z-score with doxorubicin	viability z-score without drug	Outcome
Zfand5 (zinc finger, AN1-type domain 5)	1	low cell count with doxorubicin only	-2.47	-1.01	active

Further entries:
gene	reagent no.	combined z-score class	viability z-score with doxorubicin	viability z-score without drug	Outcome
Anpep (alanyl aminopeptidase, membrane)	1	no change with or without drug	-0.67	-0.17	inactive
Med1 (mediator complex subunit 1)	1	no change with or without drug	0.67	0.17	inactive
Il27 (interleukin 27)	1	no change with or without drug	0.34	1.18	inactive
Ulk2 (unc-51 like kinase 2)	1	no change with or without drug	-0.22	0.84	inactive
Hck (Hck proto-oncogene, Src family tyrosine kinase)	1	no change with or without drug	1.35	0.17	inactive
Sinhcaf (SIN3-HDAC complex associated factor)	1	no change with or without drug	0	-0.17	inactive
Foxg1 (forkhead box G1)	1	high cell count without drug only	0.67	2.36	inactive
Gtf2a2 (general transcription factor II A, 2)	1	no change with or without drug	-0.79	-0.17	inactive
Stx5a (syntaxin 5A)	1	no change with or without drug	-0.67	-0.84	inactive
AI848100	1	no change with or without drug	0.22	1.52	inactive
Slc44a3	1	no change with or without drug	-0.45	-0.67	inactive
Vmn1r171 (vomeronasal 1 receptor 171)	1	no change with or without drug	-0.67	0.51	inactive
Taf1d	1	no change with or without drug	0.45	0.51	inactive
Alkbh3 (alkB homolog 3, alpha-ketoglutarate-dependent dioxygenase)	1	low cell count with doxorubicin only	-2.25	-1.85	active
Gm5069 (predicted pseudogene 5069)	1	high cell count without drug only	1.24	2.53	inactive
Sct (secretin)	1	no change with or without drug	0.67	0.34	inactive
4833420G17Rik (RIKEN cDNA 4833420G17 gene)	1	no change with or without drug	0	0.51	inactive
Nepn (nephrocan)	1	high cell count without drug only	-0.79	2.19	inactive
Ceacam2 (CEA cell adhesion molecule 2)	1	low cell count with doxorubicin only	-2.14	-0.51	active
Lrp4 (low density lipoprotein receptor-related protein 4)	1	no change with or without drug	0.45	-0.84	inactive
Cdyl (chromodomain protein, Y chromosome-like)	1	no change with or without drug	-0.45	0.17	inactive
Mgst2 (microsomal glutathione S-transferase 2)	1	no change with or without drug	-0.45	-0.51	inactive
Wnt1 (WNT family member 1)	1	no change with or without drug	-0.67	0.51	inactive
Guca1b (guanylate cyclase activator 1B)	1	no change with or without drug	0.22	-0.17	inactive
Dsg1b (desmoglein 1 beta)	1	no change with or without drug	-0.34	-0.51	inactive
Hepacam (hepatocyte cell adhesion molecule)	1	no change with or without drug	0	-0.17	inactive
Map3k9 (mitogen-activated protein kinase kinase kinase 9)	1	no change with or without drug	1.12	0.84	inactive
Klhl23 (kelch-like 23)	1	no change with or without drug	-0.67	-0.84	inactive
Alpl (alkaline phosphatase, liver/bone/kidney)	1	low cell count with doxorubicin only	-2.47	-0.51	active
Kbtbd2 (kelch repeat and BTB (POZ) domain containing 2)	1	no change with or without drug	-0.11	0.67	inactive
Adamtsl2 (ADAMTS-like 2)	1	no change with or without drug	0.9	0	inactive
S100a8 (S100 calcium binding protein A8 (calgranulin A))	1	no change with or without drug	-0.67	-0.17	inactive
Grk4 (G protein-coupled receptor kinase 4)	1	no change with or without drug	0.11	-0.84	inactive
Grk4 (G protein-coupled receptor kinase 4)	1	no change with or without drug	1.46	1.85	inactive
